# Results reported in PubChem BioAssay AID2685 (National Center for Advancing Translational Sciences (NCATS), 2010).
# The list shows a part of the results. The main result of the screen is listed elsewhere. These columns were measured beside it and carry no call. Most of these compounds were active or inconclusive in the main read-out, so they are no random draw. Potencies come from curve fits of mixed quality, noted in brackets.
# Assay: qHTS Assay for Lipid Storage Modulators in Drosophila S3 Cells;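 on cell number change: cells counted by Cell Tracker Red CMTPX staining in the red channel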
# Settings: BODIPY lipid droplet fluorescence, 18-24 h; for cell number change: measured here: cell count max response, cells fed with added oleic acid
# In short: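 Drosophila S3 cells got compounds at several concentrations plus oleic acid (400 uM solution). Laser-scanning cytometry with 488 nm excitation read lipid droplets at 500-530 nm and cells at 575-640 nm. Percent activity was relative to 20 uM Triacsin C.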
# [1] = measured here: cell number channel AC50, cells fed with added oleic acid
# [2] = measured here: lipid fluorescence (Fed channel) AC50, cells fed with added oleic acid
SMILES,cell number change [%],AC50 [1],AC50 [2]
Cc1ccc(/C=C2/SC(=S)N(c3ccc(S(=O)(=O)Nc4nccs4)cc3)C2=O)cc1,-68.9,"20.6 µM [falling, single point]","29.1 µM [falling, partial curve]"
O=C(/C=C/c1ccccc1)c1ccc2c3c(cccc13)CC2,-13.6,,
c1c(C2CCCCC2)n[nH]c1CN1CCCCC1,-13.7,,"0.517 µM [falling, full curve, poor fit]"
COc1ccc(-c2cc(C(=O)N(C)Cc3ccccc3F)c3ccccc3n2)cc1OC,-9.73,,"4.11 µM [falling, single point]"
CCOC(=O)N1CCC(=NNc2ncc(C(F)(F)F)cc2Cl)CC1,56.6,"0.82 µM [rising, full curve, poor fit]",
C/C(=N\NC(=O)c1ccc(Cn2cc(Br)cn2)o1)c1cccc(NC(=O)C(C)C)c1,23.6,,"0.058 µM [rising, full curve, poor fit]"
CCn1nc(C)c(CNC(=O)C2CCC(=O)N(CCc3ccc(Cl)cc3)C2)c1C (stereo unspecified),14.7,,
CCCCN(C(=O)C(C)Oc1cccc(Cl)c1)c1c(N)n(CCC)c(=O)[nH]c1=O (stereo unspecified),-7.36,,
Cc1ccc(S(=O)(=O)N2CCN(CC(=O)N/N=C/c3ccccc3OCC(=O)O)CC2)cc1,39.4,"16.4 µM [rising, single point]","23.1 µM [rising, single point]"
Fc1ccc(CNc2ccc(N3CCN(Cc4ccccc4)CC3)cc2)cc1,,,"0.00461 µM [rising, full curve, poor fit]"
Cc1cc(SCCOc2ccccc2)nc(N)n1,-29.3,"0.00517 µM [falling, full curve, poor fit]",
CCN(CC)C1=N/C(=C\c2ccc(OC)cc2)C(=O)N1c1ccccc1,30.3,"5.8 µM [rising, partial curve]","1.46 µM [rising, partial curve]"
Cc1ccc(S(=O)(=O)C2(C(=O)N3CCN(c4ccccc4F)CC3)CC2)cc1,,,"0.631 µM [falling, full curve]"
O=C(CCC(=O)N1CCOc2ccccc21)NCCCN1CCCCC1,16.7,"3.26 µM [rising, single point]",
CC1CCc2sc(C(=O)NNS(=O)(=O)c3ccc(F)c(F)c3F)cc2C1 (stereo unspecified),-25.3,,
O=S1(=O)N=C(Nc2ccc(N3CCOCC3)c(Cl)c2)c2ccccc21,,,"29.1 µM [falling, single point]"
O=C(CCc1nnc(Cc2c[nH]c3ccccc23)o1)NCC1CC12CCCCC2 (stereo unspecified),-36.9,"10.3 µM [falling, partial curve, poor fit]","0.259 µM [falling, full curve]"

# Arranged by formula weight (rising): three of the compounds above
SMILES,cell number change [%],AC50 [1],AC50 [2]
Cc1cc(SCCOc2ccccc2)nc(N)n1,-29.3,"0.00517 µM [falling, full curve, poor fit]",
COc1ccc(-c2cc(C(=O)N(C)Cc3ccccc3F)c3ccccc3n2)cc1OC,-9.73,,"4.11 µM [falling, single point]"
Cc1ccc(/C=C2/SC(=S)N(c3ccc(S(=O)(=O)Nc4nccs4)cc3)C2=O)cc1,-68.9,"20.6 µM [falling, single point]","29.1 µM [falling, partial curve]"
